No constants are given. Whether binding was seen depends on the method and setting. Some results given as binding are weak or reduced against the parent protein; the word gives no strength.
Molecular target: T1, RecC subunit of RecBCD (E. coli) (UniProt P07648)
T1 sequence: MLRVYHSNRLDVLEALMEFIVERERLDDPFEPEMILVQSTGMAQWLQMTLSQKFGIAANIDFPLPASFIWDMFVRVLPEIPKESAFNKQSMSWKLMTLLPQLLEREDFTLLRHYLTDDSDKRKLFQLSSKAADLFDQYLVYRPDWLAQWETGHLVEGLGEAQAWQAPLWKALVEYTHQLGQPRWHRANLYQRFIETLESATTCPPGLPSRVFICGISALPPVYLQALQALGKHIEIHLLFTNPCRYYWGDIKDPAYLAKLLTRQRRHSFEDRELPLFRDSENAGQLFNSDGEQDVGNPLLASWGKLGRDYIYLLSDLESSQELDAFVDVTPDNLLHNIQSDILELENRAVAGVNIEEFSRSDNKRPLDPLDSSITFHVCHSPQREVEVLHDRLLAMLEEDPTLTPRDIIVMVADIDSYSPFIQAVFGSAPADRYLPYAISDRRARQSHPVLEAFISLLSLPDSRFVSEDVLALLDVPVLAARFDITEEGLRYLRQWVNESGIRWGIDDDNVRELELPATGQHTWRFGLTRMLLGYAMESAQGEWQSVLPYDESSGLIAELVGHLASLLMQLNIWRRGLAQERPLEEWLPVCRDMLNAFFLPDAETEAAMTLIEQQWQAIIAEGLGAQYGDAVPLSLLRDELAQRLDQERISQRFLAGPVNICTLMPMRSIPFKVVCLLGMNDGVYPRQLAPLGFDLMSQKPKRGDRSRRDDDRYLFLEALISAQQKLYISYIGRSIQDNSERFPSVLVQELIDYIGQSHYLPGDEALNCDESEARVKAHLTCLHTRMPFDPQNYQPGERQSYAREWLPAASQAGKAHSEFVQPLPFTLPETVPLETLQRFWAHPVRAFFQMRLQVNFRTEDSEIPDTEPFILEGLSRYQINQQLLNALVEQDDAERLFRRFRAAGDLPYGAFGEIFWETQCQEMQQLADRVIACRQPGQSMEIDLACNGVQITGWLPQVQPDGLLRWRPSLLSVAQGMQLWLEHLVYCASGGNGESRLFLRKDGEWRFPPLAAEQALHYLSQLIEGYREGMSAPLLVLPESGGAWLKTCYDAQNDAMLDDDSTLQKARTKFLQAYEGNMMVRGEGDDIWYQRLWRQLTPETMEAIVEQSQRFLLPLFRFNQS
Test: SEC; RecBCD over-expressed in E. coli and co-purified; last step Superdex 200 in RB (20 mM MOPS pH 7.4, 2 mM MgCl2, 1 mM DTT, 0.1 mM EDTA, 75 NaCl), 4 °C; taken from the monodisperse peak of the heterotrimer; stoichiometry checked by SDS-PAGE

- binding: binds
B1: RecD subunit of RecBCD (protein, UniProt P04993 1-608)
chain: MKLQKQLLEAVEHKQLRPLDVQFALTVAGDEHPAVTLAAALLSHDAGEGHVCLPLSRLENNEASHPLLATCVSEIGELQNWEECLLASQAVSRGDEPTPMILCGDRLYLNRMWCNERTVARFFNEVNHAIEVDEALLAQTLDKLFPVSDEINWQKVAAAVALTRRISVISGGPGTGKTTTVAKLLAALIQMADGERCRIRLAAPTGKAAARLTESLGKALRQLPLTDEQKKRIPEDASTLHRLLGAQPGSQRLRHHAGNPLHLDVLVVDEASMIDLPMMSRLIDALPDHARVIFLGDRDQLASVEAGAVLGDICAYANAGFTAERARQLSRLTGTHVPAGTGTEAASLRDSLCLLQKSYRFGSDSGIGQLAAAINRGDKTAVKTVFQQDFTDIEKRLLQSGEDYIAMLEEALAGYGRYLDLLQARAEPDLIIQAFNEYQLLCALREGPFGVAGLNERIEQFMQQKRKIHRHPHSRWYEGRPVMIARNDSALGLFNGDIGIALDRGQGTRVWFAMPDGNIKSVQPSRLPEHETTWAMTVHKSQGSEFDHAALILPSQRTPVVTRELVYTAVTRARRRLSLYADERILSAAIATRTERRSGLAALFSSRE

From publication PMC8980037
